These are yes or no findings as the source states them, for the method shown. Some binding calls cover weakened binding; strength is not graded here.

By UniProt entry, the sequences of proteins in these tests, tags left out. Where a name states a change or a piece, a line headed by the entry shows the natural chain unless it says otherwise. Residues count along the entry.
UniProt Q07954, residues 805-1184: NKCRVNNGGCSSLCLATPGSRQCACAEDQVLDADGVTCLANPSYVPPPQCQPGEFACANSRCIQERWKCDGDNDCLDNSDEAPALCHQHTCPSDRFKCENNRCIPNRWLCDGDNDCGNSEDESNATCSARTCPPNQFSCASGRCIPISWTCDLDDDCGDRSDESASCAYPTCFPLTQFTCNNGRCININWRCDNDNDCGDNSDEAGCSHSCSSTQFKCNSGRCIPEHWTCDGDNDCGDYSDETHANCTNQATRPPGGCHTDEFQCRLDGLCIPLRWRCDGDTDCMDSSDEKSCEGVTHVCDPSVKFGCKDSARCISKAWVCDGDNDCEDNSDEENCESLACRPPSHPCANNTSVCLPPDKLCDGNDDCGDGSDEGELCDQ
UniProt P10646, residues 29-304: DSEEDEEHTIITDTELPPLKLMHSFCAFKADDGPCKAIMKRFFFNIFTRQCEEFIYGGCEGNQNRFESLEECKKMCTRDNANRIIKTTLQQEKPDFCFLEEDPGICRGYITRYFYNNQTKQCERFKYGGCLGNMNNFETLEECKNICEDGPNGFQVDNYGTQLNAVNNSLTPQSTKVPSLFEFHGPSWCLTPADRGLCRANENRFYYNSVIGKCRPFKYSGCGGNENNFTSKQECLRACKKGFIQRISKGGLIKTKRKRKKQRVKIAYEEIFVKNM

Drawing on patent US20180155399A1, this text covers binding for one substance.

For the experiment, the target named is recombinant human LRP-1 Cluster II Fc Chimera protein (R&D Systems) (human) (UniProt Q07954). As to the kind of experiment: SPR (BIAcore T200), 10 nM fl-TFPI over LRP-1 Cluster II Fc. In general terms: SPR reads the build-up and loss of mass on a sensor chip optically.

Consider “full length human TFPI (from UniProt P10646 29-304)”, for which the binding entry was “binds”.
